PubChem BioAssay AID504784 – Drosophila RNAi Screening Center | 2011

Assay: 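Genome-wide knock-down for genes giving too much or too little stored lipid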 (primary screen)
Cell system: Drosophila Kc167 embryonic cells
Knock-down reagent: long dsRNA against Drosophila genes, about 250 ng dsRNA per well
Timing: 4 days
Treatment: cells fed 400 µM oleic acid bound to BSA
Read-out: 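Cells imaged and segmented; ratio of lipid droplet area to nuclear area, log-transformed, then normalised as a B-score over the screen; higher means more stored lipid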
Scale: droplet/nuclear area B-score: higher = more stored lipid (overstorage)
In all, the deposit lists about 17,000 reagents; below is a random part of those with a known target gene and a result. 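Each column is one replicate's B-score; the combined score over replicates was not deposited, so single values may mislead.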 Further read-outs or replicates are left out here. Reagent sequences are not shown.

With knock-down of Prx1 [DRSC10741], the screen gave droplet/nuclear area B-score, replicate 1 = 0.314.
Knock-down of CG6149 [DRSC10593] resulted in: droplet/nuclear area B-score, replicate 1 = -0.559.
CG14362 [DRSC14824] showed droplet/nuclear area B-score, replicate 1 = -0.575.
After knock-down of TBC1D16 [DRSC02841], the screen gave droplet/nuclear area B-score, replicate 1 = -0.261.
Silencing of CG15890 [DRSC19737] gave: droplet/nuclear area B-score, replicate 1 = -0.258.
With knock-down of retinin [DRSC09940], the screen gave droplet/nuclear area B-score, replicate 1 = 1.17.
Depletion of Pp1-87B [DRSC16794] resulted in: droplet/nuclear area B-score, replicate 1 = -0.0377.
Pp1-87B [DRSC23299] gave droplet/nuclear area B-score, replicate 1 = 0.444.
Sirt2 [DRSC15714] scored droplet/nuclear area B-score, replicate 1 = -0.847.
Silencing of Ns4 [DRSC03199] came out at: droplet/nuclear area B-score, replicate 1 = -1.08.
Silencing of CG7409 [DRSC10842] resulted in: droplet/nuclear area B-score, replicate 1 = -1.91.
For CHKov2 [DRSC14262], the entry reads droplet/nuclear area B-score, replicate 1 = -0.501.
Silencing of qvr [DRSC05280] resulted in: droplet/nuclear area B-score, replicate 1 = -0.639.
yellow-e [DRSC12966] showed droplet/nuclear area B-score, replicate 1 = 0.024.
yellow-e [DRSC16563] gave droplet/nuclear area B-score, replicate 1 = -1.67.
Depletion of CG15429 [DRSC00444] gave: droplet/nuclear area B-score, replicate 1 = -0.951.
beat-Vc [DRSC12927] scored droplet/nuclear area B-score, replicate 1 = 1.47.
For beat-Vc [DRSC14849] the deposit lists droplet/nuclear area B-score, replicate 1 = 0.117.
After knock-down of CG12506 [DRSC00347] the results were droplet/nuclear area B-score, replicate 1 = -0.75.
Against CG8517 [DRSC07205], the entry reads droplet/nuclear area B-score, replicate 1 = 1.58.
CG16985 [DRSC08501] scored droplet/nuclear area B-score, replicate 1 = 0.954.

Laid out differently: entries from further up.
target,dsRNA,"droplet/nuclear area B-score, replicate 1"
qvr,DRSC05280,-0.639
yellow-e,DRSC12966,0.024
yellow-e,DRSC16563,-1.67
CG15429,DRSC00444,-0.951
beat-Vc,DRSC12927,1.47
beat-Vc,DRSC14849,0.117
CG12506,DRSC00347,-0.75

More entries follow:
Depletion of Srp68 [DRSC10475] came out at: droplet/nuclear area B-score, replicate 1 = 2.47.
With knock-down of CG15282 [DRSC22620], the screen gave droplet/nuclear area B-score, replicate 1 = -3.7.
CG15282 [DRSC23090] scored droplet/nuclear area B-score, replicate 1 = -0.821.
Depletion of trbd [DRSC16494] resulted in: droplet/nuclear area B-score, replicate 1 = 2.3.
After knock-down of CG33521 [DRSC17211] the results were droplet/nuclear area B-score, replicate 1 = 0.0526.
CG33521 [DRSC22919] gave droplet/nuclear area B-score, replicate 1 = -0.237.
CG17129 [DRSC08508] gave droplet/nuclear area B-score, replicate 1 = -0.16.
After knock-down of CG32305 [DRSC08614], the screen gave droplet/nuclear area B-score, replicate 1 = -0.422.
Knock-down of rha [DRSC17044] came out at: droplet/nuclear area B-score, replicate 1 = 0.4.
Mkp3 [DRSC10084] scored droplet/nuclear area B-score, replicate 1 = -2.4.
Against Mkp3 [DRSC10085], the values are droplet/nuclear area B-score, replicate 1 = 1.18.
CR32745 [DRSC17442] scored droplet/nuclear area B-score, replicate 1 = 0.294.
With knock-down of CG4783 [DRSC15644] the results were droplet/nuclear area B-score, replicate 1 = 0.0478.
CG7987 [DRSC16357] gave droplet/nuclear area B-score, replicate 1 = 0.509.
After knock-down of rut [DRSC20367] the results were droplet/nuclear area B-score, replicate 1 = -0.21.
Depletion of rut [DRSC22976] resulted in: droplet/nuclear area B-score, replicate 1 = -2.13.
Depletion of rumpel [DRSC18436] came out at: droplet/nuclear area B-score, replicate 1 = -0.6.
For Spn42De [DRSC05011], the entry reads droplet/nuclear area B-score, replicate 1 = 0.122.
For BORCS5 [DRSC19427], the values are droplet/nuclear area B-score, replicate 1 = 0.137.
